# Data: article PMC10620030, “New Organotin (IV) Compounds Derived from Dehydroacetic Acid and Thiosemicarbazides: Synthesis, Rational Design, Cytotoxic Evaluation, and Molecular Docking Simulation” (Bioinorganic Chemistry and Applications, 2023)
# Experiments:
# [1] = system: MCF-7 (human mammary adenocarcinoma) cell line; assay: sulforhodamine B (SRB) cytotoxicity assay on MCF-7; type: cell-based; conditions: MCF-7 compared to normal cell line COS-7
# Protocol: (§1) The compounds were screened in vitro against two cancer cell lines, MCF-7 and MDA-MB-231 (human mammary adenocarcinoma), and the normal cell line Cos-7 (African green monkey kidney fibroblast). The MCF-7 and MDA-MB231 cell lines were cultured in RPMI-1640 medium, and Cos-7 was cultured in DMEM (Dulbecco's Modified Eagle's Medium) and supplemented with 10% of fetal bovine serum, 2 mM L-glutamine, 10000 units/ml penicillin G sodium, 10000 μg/ml streptomycin sulfate, 25 μg amphotericin B (Gibco), and 1% of nonessential amino acids (Gibco). The cell lines were maintained at 37°C in a humidified atmosphere with 5% CO2. The viability of the cells used in the experiments exceeded 95%, as determined with trypan blue.
# (§2) The human tumor cytotoxicity was assessed using the protein-binding dye sulforhodamine B (SRB) in a microculture assay to measure the cell growth as described by. The human tumors and normal cells were treated with the complexes. The cells were removed from the tissue culture flask by treatment with trypsin and diluted with fresh media from the cell suspension to 100 μl containing 5000–10000 cells per well. The cells were then pipetted into 96 microliter plates (Costar) and incubated at 37°C for 24 h in a 5% CO2 atmosphere. Subsequently, 100 μl of a solution of the corresponding organotin complex at different concentrations was added to each well. […] After the incubation period, the cells were fixed to the plastic substratum by the addition of 50 μl of cold trichloroacetic acid (50% aqueous).
# (§3) The plates were incubated at 4°C for one hour, washed with tap water, and air-dried. The addition of […] stained trichloroacetic acid-fixed cells. The free SRB was removed by washing with 1% aqueous acetic acid, the plates were air-dried, and the dyed was solubilized by adding ten mM unbuffered Tris base (100 μl). The plates were placed on a shaker for 10 min, and the absorption was measured at 515 nm using an ELISA plate reader (Bio-Tex Instruments).
# [2] = system: MDA-MB-231 (human mammary adenocarcinoma) cell line; assay: sulforhodamine B (SRB) cytotoxicity assay on MDA-MB-231; type: cell-based; conditions: MDA-MB-231 compared to normal cell line COS-7
# Protocol: as §1, §2, §3
# [3] = system: ss-DNA; assay: isothermal titration calorimetry (ITC); type: binding; conditions: 25 °C
Compound,selectivity index (SI) MCF-7 [1],selectivity index (SI) MDA-MB-231 [2],further results
"CC1=NN=C(Nc2ccccc2)[S][Sn]([CH2][Si](C)(C)C)([CH2][Si](C)(C)C)[O]c2cc(C)oc(=O)c21 [Compound 3e, 2,2-Bis(trimethylsilyl)methyl-7,10-dimethyl-4-(aminophenyl) Pyrane[3,4-h]-1,3,5,6,2-oxathiadiazastannonin-8-one]",6.25,1.79,–
"CCCCCCC[CH2][Sn]1([CH2]CCCCCCC)[O]c2cc(C)oc(=O)c2C(C)=NN=C(Nc2ccccc2)[S]1 [Compound 3b, 2,2-Dioctyl-7,10-dimethyl-4-(aminophenyl) Pyrane[3,4-h]-1,3,5,6,2-oxathiadiazastannonin-8-one]",2.19,2.96,–
"N.N.[Cl][Pt][Cl] [Cisplatin, reference compound]",1.35,0.26,–
"CCCCCCC[CH2][Sn]1([CH2]CCCCCCC)[O]c2cc(C)oc(=O)c2C(C)=NN=C(NC)[S]1 [Compound 2b, 2,2-Dioctyl-7,10-dimethyl-4-(aminomethyl) Pyrane[3,4-h]-1,3,5,6,2-oxathiadiazastannonin-8-one]",8.33,–,–
"CCCCCCC[CH2][Sn]1([CH2]CCCCCCC)[O]c2cc(C)oc(=O)c2C(C)=NN=C(N)[S]1 [Compound 1b, 4-Amino-2,2-dioctyl-7,10-dimethylpyrane-[3,4-h]-1,3,5,6,2-oxathiadiazastannonin-8-one]",1.40,1.10,–
"CC1=NN=C(N)[S][Sn]([CH2][Si](C)(C)C)([CH2][Si](C)(C)C)[O]c2cc(C)oc(=O)c21 [Compound 1e, 4-Amino-2,2-bis(trimethylsilyl)methyl-7,10-dimethylpyrane[3,4-h]-1,3,5,6,2-oxathiadiazastannonin-8-one]",0.77,3.33,–
"CC1=NN=C(CN)[S][Sn]([c]2ccccc2)([c]2ccccc2)[O]c2cc(C)oc(=O)c21 [Compound 2c, 2,2-Diphenyl-7,10-dimethyl-4-(aminomethyl) Pyrane[3,4-h]-1,3,5,6,2-oxathiadiazastannonin-8-one]",1.06,1.13,–
"CCC[CH2][Sn]1([CH2]CCC)[O]c2cc(C)oc(=O)c2C(C)=NN=C(N)[S]1 [Compound 1a, 4-Amino-2,2-dibutyl-7,10-dimethylpyrane[3,4-h]-1,3,5,6,2-oxathiadiazastannonin-8-one]",1.23,–,–
"CC1=NN=C(N)[S][Sn]([c]2ccccc2)([c]2ccccc2)[O]c2cc(C)oc(=O)c21 [Compound 1c, 4-Amino-2,2-diphenyl-7,10-dimethylpyrane[3,4-h]-1,3,5,6,2-oxathiadiazastannonin-8-one]",1.11,4.00,ΔHb [3]: -3.775 ± 0.272 kcal/mol; −TΔSb [3]: -2.573 kcal/mol; ΔGb ([3]; from ΔG = −RT ln K): -6.3474 kcal/mol; nature of binding reaction with ss-DNA ([3]; ITC titration curve): exothermic
"CC1=NN=C(N)[S][Sn]([CH]2CCCCC2)([CH]2CCCCC2)[O]c2cc(C)oc(=O)c21 [Compound 1d, 4-Amino-2,2-dicyclohexyl-7,10-dimethylpyrane[3,4-h]-1,3,5,6,2-oxathiadiazastannonin-8-one]",–,1.51,–
"CC1=NN=C(CN)[S][Sn]([CH2][Si](C)(C)C)([CH2][Si](C)(C)C)[O]c2cc(C)oc(=O)c21 [Compound 2e, 2,2-Bis(trimethylsilyl)methyl-7,10-dimethyl-4-(aminomethyl) Pyrane[3,4-h]-1,3,5,6,2-oxathiadiazastannonin-8-one]",1.93,2.41,–
"CCC[CH2][Sn]1([CH2]CCC)[O]c2cc(C)oc(=O)c2C(C)=NN=C(CN)[S]1 [Compound 2a, 2,2-Dibutyl-7,10-dimethyl-4-(aminomethyl) Pyrane[3,4-h]-1,3,5,6,2-oxathiadiazastannonin-8-one]",2.95,2.00,–
"CCC[CH2][Sn]1([CH2]CCC)[O]c2cc(C)oc(=O)c2C(C)=NN=C(Nc2ccccc2)[S]1 [Compound 3a, 2,2-Dibutyl-7,10-dimethyl-4-(aminophenyl) Pyrane[3,4-h]-1,3,5,6,2-oxathiadiazastannonin-8-one]",1.61,3.40,–
"CC1=NN=C(Nc2ccccc2)[S][Sn]([CH]2CCCCC2)([CH]2CCCCC2)[O]c2cc(C)oc(=O)c21 [Compound 3d, 2,2-Dicyclohexyl-7,10-dimethyl-4-(aminophenyl) Pyrane[3,4-h]-1,3,5,6,2-oxathiadiazastannonin-8-one]",1.00,–,–
"CC1=NN=C(CN)[S][Sn]([CH]2CCCCC2)([CH]2CCCCC2)[O]c2cc(C)oc(=O)c21 [Compound 2d, 2,2-Dicyclohexyl-7,10-dimethyl-4-(aminomethyl) Pyrane[3,4-h]-1,3,5,6,2-oxathiadiazastannonin-8-one]",1.40,3.21,–
"CC1=NN=C(Nc2ccccc2)[S][Sn]([c]2ccccc2)([c]2ccccc2)[O]c2cc(C)oc(=O)c21 [Compound 3c, 2,2-Diphenyl-7,10-dimethyl-4-(aminophenyl) Pyrane[3,4-h]-1,3,5,6,2-oxathiadiazastannonin-8-one]",1.56,0.51,–
